This is an account of results in US20110092490A1, “PYRIMIDINES, TRIAZINES AND THEIR USE AS PHARMACEUTICAL AGENTS” (THE UNIVERSITY OF NOTTINGHAM, priority 2008, published 2011).

The test system of one assay is HCT-116. The assay can be described thus: 72-h MTT cytotoxicity assay. The class given is cell-based. The note with it: Homo sapiens, HCT116 cells. Here is the method: (§1) MTT cytotoxicity assay. […] Human tumour cell lines were obtained from ECACC (European Collection of Cell Cultures). Standard 72-h MTT (thiazolyl blue; 3-[4,5-dimethylthiazol-2-yl]-2,5-diphenyltetrazolium bromide, 2 mg/ml in phosphate buffered saline) assays were performed. In short: cells were seeded into 96-well plates according to doubling time and incubated overnight at 37° C. Test compounds were made up in DMSO and a ⅓ dilution series prepared in 100 μL cell media, added to cells (in triplicates) and incubated for 72 hr at 37° C. MTT was made up as a stock of 5 mg/mL in cell media and filter-sterilised. Media was removed from cells followed by a wash with 200 μL PBS. MTT solution was then added at 20 μL per well and incubated in the dark at 37° C. for 4 h. MTT solution was removed and cells again washed with 200 μL PBS. MTT dye was solubilised with 200 μL per well of DMSO with agitation. Absorbance was read at 550 nm on an Anthos Labtec Systems plate reader.
On the technique in general: Tetrazolium assays rely on reduction of a dye to a coloured formazan, in cell work by metabolically active cells.

The next assay relates to MCF-7. The assay can be described thus: 72-h MTT cytotoxicity assay. The class given is cell-based. The conditions noted are these: Homo sapiens, MCF7 cells. Here is the method:
as §1

The GI50 is the concentration that inhibits growth by half. A high value points to less potent growth inhibition. As for `CNc1nc(C)c(-c2nc(Nc3cccc([N+](=O)[O-])c3)ncc2C#N)s1` [Example 1.7, 4-(4-methyl-2-(methylamino)thiazol-5-yl)-2-(3-nitrophenylamino)pyrimidine-5-carbonitrile], the GI50 in the assay on HCT-116 came to 50 nM; with MCF-7, 80 nM.
